# Experimental data: publication PMC4323219
# Sequences of proteins named here, by UniProt entry; tags and fusion partners are left off. A change or cut given only in a name is not applied to a line headed by its entry. Residues count along the entry.
# UniProt P15692: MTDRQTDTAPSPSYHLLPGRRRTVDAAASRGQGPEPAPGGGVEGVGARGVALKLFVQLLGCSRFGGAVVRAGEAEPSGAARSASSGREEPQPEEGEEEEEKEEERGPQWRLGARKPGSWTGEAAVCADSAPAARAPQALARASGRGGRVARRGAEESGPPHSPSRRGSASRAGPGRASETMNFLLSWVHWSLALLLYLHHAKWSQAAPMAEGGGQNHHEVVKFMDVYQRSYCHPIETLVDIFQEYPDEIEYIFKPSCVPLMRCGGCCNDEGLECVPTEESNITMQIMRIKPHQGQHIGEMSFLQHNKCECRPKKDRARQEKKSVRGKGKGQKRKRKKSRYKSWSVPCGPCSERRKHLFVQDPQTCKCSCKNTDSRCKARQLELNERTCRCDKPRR
# UniProt P23471, residues 25-2315: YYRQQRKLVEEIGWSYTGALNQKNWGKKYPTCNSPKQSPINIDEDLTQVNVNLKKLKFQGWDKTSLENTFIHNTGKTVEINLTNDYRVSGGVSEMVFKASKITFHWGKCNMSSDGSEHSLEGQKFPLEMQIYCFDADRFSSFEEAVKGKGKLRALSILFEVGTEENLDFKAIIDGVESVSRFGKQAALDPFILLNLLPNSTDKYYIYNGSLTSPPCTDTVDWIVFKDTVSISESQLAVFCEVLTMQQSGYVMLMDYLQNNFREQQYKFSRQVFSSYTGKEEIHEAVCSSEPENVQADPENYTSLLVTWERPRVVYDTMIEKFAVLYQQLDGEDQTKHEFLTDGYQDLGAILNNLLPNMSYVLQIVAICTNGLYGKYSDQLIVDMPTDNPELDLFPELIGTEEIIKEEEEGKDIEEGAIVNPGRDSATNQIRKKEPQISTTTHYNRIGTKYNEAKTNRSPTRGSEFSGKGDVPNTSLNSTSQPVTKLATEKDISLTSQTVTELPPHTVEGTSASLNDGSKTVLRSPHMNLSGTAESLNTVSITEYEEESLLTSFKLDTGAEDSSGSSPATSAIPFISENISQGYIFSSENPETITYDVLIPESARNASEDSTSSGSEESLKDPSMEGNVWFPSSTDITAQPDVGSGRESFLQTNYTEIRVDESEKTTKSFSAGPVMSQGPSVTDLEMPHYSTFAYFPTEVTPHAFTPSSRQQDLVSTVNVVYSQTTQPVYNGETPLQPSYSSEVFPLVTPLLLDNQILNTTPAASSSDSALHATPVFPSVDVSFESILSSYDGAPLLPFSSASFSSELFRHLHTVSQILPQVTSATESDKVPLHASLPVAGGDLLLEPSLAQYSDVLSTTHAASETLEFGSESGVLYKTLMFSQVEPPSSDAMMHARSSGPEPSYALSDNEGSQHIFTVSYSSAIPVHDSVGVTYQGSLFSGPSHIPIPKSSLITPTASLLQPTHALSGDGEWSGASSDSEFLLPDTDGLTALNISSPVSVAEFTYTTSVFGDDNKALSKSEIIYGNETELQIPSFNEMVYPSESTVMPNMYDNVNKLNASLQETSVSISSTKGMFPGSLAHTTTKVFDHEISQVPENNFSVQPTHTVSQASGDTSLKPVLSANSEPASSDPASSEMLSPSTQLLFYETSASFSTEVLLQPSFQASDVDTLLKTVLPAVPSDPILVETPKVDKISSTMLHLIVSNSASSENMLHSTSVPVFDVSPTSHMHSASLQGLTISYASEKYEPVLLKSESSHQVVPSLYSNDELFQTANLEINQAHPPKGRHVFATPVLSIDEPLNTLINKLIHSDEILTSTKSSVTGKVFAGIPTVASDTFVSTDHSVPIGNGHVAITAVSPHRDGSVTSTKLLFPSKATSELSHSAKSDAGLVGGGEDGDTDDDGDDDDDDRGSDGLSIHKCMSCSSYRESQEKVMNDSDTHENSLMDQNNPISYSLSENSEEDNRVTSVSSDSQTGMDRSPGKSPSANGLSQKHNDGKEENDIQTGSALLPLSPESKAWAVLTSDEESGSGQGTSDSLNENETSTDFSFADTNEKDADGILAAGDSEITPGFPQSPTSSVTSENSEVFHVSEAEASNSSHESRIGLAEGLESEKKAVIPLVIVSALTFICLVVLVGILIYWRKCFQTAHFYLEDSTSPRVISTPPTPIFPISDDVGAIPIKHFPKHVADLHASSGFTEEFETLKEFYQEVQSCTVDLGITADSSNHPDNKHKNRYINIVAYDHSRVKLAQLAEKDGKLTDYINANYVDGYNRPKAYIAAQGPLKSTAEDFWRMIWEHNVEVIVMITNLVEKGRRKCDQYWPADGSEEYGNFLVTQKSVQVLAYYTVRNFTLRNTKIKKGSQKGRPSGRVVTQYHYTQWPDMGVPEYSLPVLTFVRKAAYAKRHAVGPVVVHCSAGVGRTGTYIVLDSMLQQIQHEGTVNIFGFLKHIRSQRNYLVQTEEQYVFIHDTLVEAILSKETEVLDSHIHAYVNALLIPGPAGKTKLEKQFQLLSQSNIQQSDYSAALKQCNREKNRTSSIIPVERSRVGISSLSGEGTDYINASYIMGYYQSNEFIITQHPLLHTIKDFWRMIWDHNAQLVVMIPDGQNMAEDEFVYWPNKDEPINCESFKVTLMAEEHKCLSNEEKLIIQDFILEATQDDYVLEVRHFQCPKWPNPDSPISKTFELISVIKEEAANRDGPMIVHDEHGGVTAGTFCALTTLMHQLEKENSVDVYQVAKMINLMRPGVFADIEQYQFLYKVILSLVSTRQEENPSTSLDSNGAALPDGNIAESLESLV
# Results are given in words; binding and its absence hold for the method and conditions named. Binding seen in cells or lysates may run through a third protein. A result given as binding can be weak or reduced; the word gives no strength.
# How the values were obtained:
# [1] = biological target: Vascular endothelial growth factor A (endogenous) (human (endogenous in HUVEC and U87MG)) (UniProt P15692); test: co-IP; U87MG cells lysed with RIPA buffer; immunoprecipitated for RPTPβ/ζ, VEGF or PTN, Western blot for VEGF or RPTPβ/ζ; IgG as negative control; with or without CS-E or PTN in some panels
# [2] = biological target: Receptor protein tyrosine phosphatase beta/zeta (human (endogenous in HUVEC and U87MG)) (UniProt P23471); test: proximity ligation; in situ PLA on fixed U87MG cells, endogenous proteins; treatments in some panels: CS-E II 100 ng/ml, exogenous PTN 100 ng/ml
# [3] = biological target: Receptor protein tyrosine phosphatase beta/zeta (human (endogenous in HUVEC and U87MG)) (UniProt P23471); test: co-IP; U87MG cells lysed with RIPA buffer; immunoprecipitated for RPTPβ/ζ, VEGF or PTN, Western blot for VEGF or RPTPβ/ζ; IgG as negative control; with or without CS-E or PTN in some panels
# [4] = biological target: Receptor protein tyrosine phosphatase beta/zeta (human (endogenous in HUVEC and U87MG)) (UniProt P23471); test: proximity ligation; in situ PLA on fixed HUVEC, endogenous proteins; treatments in some panels: VEGF165 10 ng/ml, siRNA against RPTPβ/ζ, bevacizumab 250 μg/ml, CS-E II 100 ng/ml, exogenous PTN 100 ng/ml
binding [1],binding [2],binding [3],binding [4],Substance
binds,,,,"Receptor protein tyrosine phosphatase beta/zeta, short transmembrane isoform (from UniProt P23471-3)"
,binds,binds,binds,Vascular endothelial growth factor A (endogenous) (from UniProt P15692-4) (ligand)
binds,,,,"Receptor protein tyrosine phosphatase beta/zeta, long transmembrane isoform (from UniProt P23471-1 25-2315)"
